Measured values reported in PubChem BioAssay AID493014 (National Center for Advancing Translational Sciences (NCATS), 2011).
The list shows a part of the results. The main result of the screen is listed elsewhere. These columns were measured beside it and carry no call. Compounds called inactive in the main read-out are mostly missing here. The note in brackets gives the kind of curve behind each potency; many fits are weak.

Experiment: qHTS Assay to Find Inhibitors of Chronic Active B-Cell Receptor Signaling
Settings: ABC-DLBCL IkBa-CBG/CBR reporter, luminescence ratio (green luciferase fused to IkBa over red control in TMD8 lymphoma cells), 4 h
Procedure, shortened: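 TMD8 ABC-DLBCL cells carrying doxycycline-inducible green luciferase fused to IkappaBalpha plus unfused red luciferase were exposed to compounds (up to 46 uM) for 4 hrs at 37C. Activity came from the overlap-corrected green/red luminescence ratio.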

[1] = measured here: CBR red luminescence, cell number

Compound | AC50 [1] | AC50 (measured here: IkBa-CBG green luminescence)
N=C(N)SCc1ccccc1Cl | 16.4 µM [falling, single point] | 
O=C(N1CCNCC1)N1CCOCC1 | 32.6 µM [falling, single point] | 
O=C(NCc1csc(-c2cccs2)n1)C1CCC1 | 10 µM [rising, partial curve] | 
Cc1sc2nc(C)n(/N=C/N(C)C)c(=O)c2c1C | 4.47 µM [rising, full curve, poor fit] | 
CC(C)COc1ccc(C(=O)CCN2CCCCC2)cc1 | 15.8 µM [falling, single point] | 
O=C(Nc1nccs1)c1ccc(Cl)c([N+](=O)[O-])c1 | 11.2 µM [falling, partial curve, poor fit] | 
Cc1cc(Nc2cccc(F)c2)nc(N2CCOCC2)n1 | 35.5 µM [falling, single point] | 
Cc1cc(C)cc(NC2=CC(=O)CC(c3ccco3)C2)c1 (stereo not given) | 8.2 µM [falling, partial curve] | 25.9 µM [rising, partial curve, poor fit]
CCNc1c(NC(=O)c2ccc3c(c2)OCO3)c(=O)oc2ccccc12 | 3.16 µM [falling, single point] | 
O=C(Cc1ccccc1)Nc1ccc2c(c1)OC1(CCCC1)O2 | 14.6 µM [rising, partial curve, poor fit] | 
Cc1cccc(C(=O)NCC(=O)N2CCN(c3ccc(Cl)cc3)CC2)c1 | 1 µM [rising, full curve, poor fit] | 
O=C(NCN1C(=O)C2C3C=CC(C3)C2C1=O)Nc1ccccc1O (stereo not given) | 4.47 µM [falling, full curve, poor fit] | 
CCCc1cc(C(=O)Nc2cccc([N+](=O)[O-])c2)cs1 | 1.78 µM [rising, partial curve, poor fit] | 
O=C(CCOc1ccccc1)NCc1ccccc1 | 20.6 µM [rising, single point] | 
Cc1ccc2c(CN(C)Cc3ccc(Cl)cc3Cl)cc(=O)oc2c1 | 7.08 µM [rising, full curve] | 
CCCc1cc(C(=O)N/N=C/c2ccc(C)o2)c2ccccc2n1 | 11.2 µM [falling, partial curve] | 
O=C1CCN(Cc2nc(-c3ccc(Cl)cc3)no2)CCN1 | 14.1 µM [rising, single point] | 
COc1ccc(F)cc1S(=O)(=O)NCCc1sc2nc(-c3ccc(F)cc3)nn2c1C | 14.1 µM [falling, partial curve, poor fit] | 
Cc1ccc(C)c(NC(=O)c2cc(-c3cc(C)cc(C)c3O)n[nH]2)c1 | 20 µM [falling, partial curve, poor fit] | 

Shown as a markdown table: part of the list above.

| Compound | AC50 [1] | AC50 (measured here: IkBa-CBG green luminescence) |
| --- | --- | --- |
| O=C(NCN1C(=O)C2C3C=CC(C3)C2C1=O)Nc1ccccc1O (stereo not given) | 4.47 µM [falling, full curve, poor fit] |  |
| CCCc1cc(C(=O)Nc2cccc([N+](=O)[O-])c2)cs1 | 1.78 µM [rising, partial curve, poor fit] |  |
